## Screening data

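Genome-wide siRNA knockdown in TC32 Ewing sarcoma cells, comparing luciferase light from an NR0B1-promoter reporter with a CMV-promoter reporter 48 hours after transfection.
Each siRNA was applied at 20 nM.
A z-score of the log NR0B1-over-CMV signal, less the median of siRNAs with the same seed; more negative means a stronger specific loss of the NR0B1 reporter.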

The strongest results of the screen are mostly left out here.
Sequences are the guide (antisense) strand, without overhang.

strand | target gene | seed-corrected z-score
UUAGAUAGAUUAGCAUUGG | MYH8 | -0.6293
UAUUUGGAUGACGAAGUUC | CDK1 | -0.5845
UGAAGUACAGGAGAUACGG | SLC44A4 | 1.433
UAUUUGUCGAAGUUGAUCC | RPL27A | -1.966
UCGGUCAACAUUUUCAGGC | MEX3C | -0.2765
UCUGCAAUCACAGCUACUC | FRMD5 | -0.1642
UUGGUUUUUAAUCCCUUCC | APOBEC3C | 0.7293
UUUGUCCAUAGCCUUAGCC | CYP4B1 | -0.5087
UAGAGGAUAACUCCUAGGC | MARK2 | 0.283
UCCGUAUCAACUCAUUUCC | CNBD2 | -0.009071
UUUUGGAUAGUUUGCAUGG | KRT18P8 | 0.05295
UUCAGCACAGGAGACCUUG | MYOG | 0.9337
UCUAUUACCACCUUGAGGA | CTDNEP1 | 0.51
AGAUCAUCCGUUUUCGUCC | TMEM30A | -0.3295
UCUAAUUCCAGUGGUCACC | DIRC3 | -0.4691
UGGUUUACUGCUGUGAAGG | RNASEH2C | 0.6535
AUGUAUACCAUCGAUGGGC | SMARCA2 | 0.2808
UCAUUGGGCAGCAAUAGAC | PARD3B | 0.1288
UCAUAGACUCCGAAGUAGG | SLC25A4 | 0.002229
UUGCCCUUCAUAAAGAUGA | NSMCE3 | -0.9929
UACUCUACGCGCACGAUGC | INSM2 | 0.07043
UAUUCUAUAAUGAAGAUGU | REXO2 | 0.4306
UACGCAAUAAUAUCAUCUG | PHTF1 | -0.1068
AUCGAUAUCUGUUACAAAC | CDK6 | -1.096
UUCAGGACCAAAUAGCAGA | TOMM34 | 0.4274
UCUCUAACCAACGGUGCUG | MAGIX | 0.42
UUUGUAGUAGCUUUGAGGG | TET1P1 | -1.96
UCACUUUCACUCCAUCCAC | NOS1AP | 0.2663
UUUAGCCUUGGAAAAAUCC | NUDC | 0.07726
AUCGGUAACAGGCACCUUU | DUSP21 | 0.3649
UUCUGUAUCAUUGGAUUGU | RNF113A | -0.2568
UGUGAAACAAUGCUCAUAG | DEPDC1B | 0.1888
AUUGUCUGAACUGUAGUGC | TMEFF2 | -0.6964
CAAGGUAUAUAAUUUAAGC | WDFY3 | -0.5763
UUCAGUGUUAUCUUGGGCC | CASQ1 | 0.969
UUUACCAACAAUUUACUUG | CFDP1 | 0.4583
UCAGUCUACAUUUCUUGAG | LOC646179 | 0.01081
UUUGUUGCUUCCAUAACCA | RPL32 | -1.159
AACAUCAUGAGUAUAGUUG | TCTEX1D2 | 1.163
UUCUCUAUACCAUUCACUG | SOCS4 | -0.5047
UGGUUGAUUAGAAGCCUGC | DPPA4 | -0.4114
UAUGCAUAGGAGUUGAUCC | ANKRD42 | -0.3642
AAACAGAAUAUAGUCAGUG | TMEM257 | 0.027
UGGUAGGUCACAAUGGUGC | HYOU1 | -0.001078
UCGUUUCUCAAUAACAACC | MICAL3 | 0.3059
AACUUUGUCAUUAGGAUCC | CRHR2 | -0.2931
UAUCCUACUGGGUUCCUGC | ERAP1 | -0.1784
UCUGGUCUACAAAAUGCCG | GUSBP5 | -1.409
UGGAUAACGAUUCACCACC | MARK1 | -0.232
UCCUCGAUAAGUUUGCAAC | CCT2 | -0.615
UUCUCGUCCAUACUGAUAC | TMEM245 | -0.1805
AAUUGUCGACUCAAUGUUC | STX5 | 0.1743
UAAAGAAUAUGUCCCUAUG | SLC39A1 | 0.1391
UGACCAUUUAGCUCAAGUC | SIAH1 | -0.2193
UGAGUGACAAGUGAGUCUG | SCMH1 | -0.4346
UCUCGAAUGAGAGGAUGCC | ADD3 | -0.7563
UGUGGAUACACGUUGAUGU | ZCCHC24 | 0.4669
UUGUUCAUCAUUGCGUUGG | TMOD1 | 0.03817
UAUAGAUGAACGGCAGGUG | GYG2 | -0.2557
UCAGGGCUAAAACAAUACC | TPBG | -0.3004
UACCUUUUAAUCCAAGAGC | STAR | -1.291
UUCCGAACCUUGCUCCUUG | KIRREL3 | 0.2479
UCACAUUCCACACGUAGAC | DMBX1 | 0.03431
AUUAGUCCAACAAGAAUCC | RHBDD1 | 0.8312
UACUUUUCGGCUGAGAGUC | FUNDC2P2 | 0.708
AUGGUUGUCAAUGUAAUCG | KCNQ4 | -0.335
AGCUUCAUAACAGCACAGG | APC2 | -0.7922
UUAGGCUCAAGAGUUCAGC | TRIM27 | 0.282
UGCGGAAAAAGGUUCAGCU | BTBD19 | 1.032
UGAUCGAACAGUGUCUUCC | GDAP2 | -0.1376
AUCUUUACGAGAUCGCUGC | AMOTL1 | 0.6061
UUUAGUUGUUGAUAGAUUG | TACR3 | -0.3633
UUGAGAAUAAUGGGCAUCU | AHDC1 | -0.05749
UACAGGACAGCAUAGUAGC | GPR161 | -0.6286
ACUGUUGUUACUACGGUUG | MGEA5 | 1.42
AAUGGGUUUGGUGAGGAGG | SLC5A1 | -0.2849
CAAGUUGUCCUUCCCUGGC | PRR33 | -1.511
UUGUUGAGAACAAUCAUCC | STAC3 | 0.7677
AAAUGUCCAUUGUUGACUC | KLHL1 | -0.01593
UGAUGAACCUAAGAAAGGC | MOCOS | 0.351
UCUAAGAAGAGAUCAAUGC | TMBIM6 | 0.7095
UUAACAUAAGAUGCCUCCG | RPSAP47 | 2.03
AUCGGUACUGGGUAUGGUC | MYH15 | 0.7105
UUUUAUGUCGGUGCAGUGG | HABP2 | 0.2635
AAUACUAGAAUGAUAACUG | ATP2B1 | 0.3507

The first 7 entries again:

- UUAGAUAGAUUAGCAUUGG against MYH8 : seed-corrected z-score -0.6293
- UAUUUGGAUGACGAAGUUC against CDK1 : seed-corrected z-score -0.5845
- UGAAGUACAGGAGAUACGG against SLC44A4 : seed-corrected z-score 1.433
- UAUUUGUCGAAGUUGAUCC against RPL27A : seed-corrected z-score -1.966
- UCGGUCAACAUUUUCAGGC against MEX3C : seed-corrected z-score -0.2765
- UCUGCAAUCACAGCUACUC against FRMD5 : seed-corrected z-score -0.1642
- UUGGUUUUUAAUCCCUUCC against APOBEC3C : seed-corrected z-score 0.7293

The results are deposited in PubChem (AID1159506; NCATS, 2015).